# Some results were stated once for a whole list of compounds, not compound by compound. At least one structure is not confirmed: it was looked up by name or label, or the drawing left a doubt.
# Assays:
# Format in all cases: in vivo
# [1] = test system: Pyrenophora teres; test: Action against Pyrenophora teres/barley (net blotch on barley); conditions: barley plants cv. Express, 0.002% active ingredient, spray, assessed 4 days after inoculation
# [2] = test system: Podosphaera leucotricha; test: Action against Podosphaera leucotricha/apple (powdery mildew on apple); conditions: apple seedlings cv. McIntosh, 0.002% active ingredient, spray, assessed after 12 days incubation
# [3] = test system: Botrytis cinerea; test: Action against Botrytis cinerea/grape (Botrytis on grapes); conditions: grape seedlings cv. Gutedel, 0.002% active ingredient, spray, assessed after 4 days incubation
# [4] = test system: Erysiphe graminis; test: Action against Erysiphe graminis/barley (powdery mildew on barley); conditions: barley plants cv. Express, 0.02% active ingredient, spray, assessed after 6 days incubation
# [5] = test system: Septoria nodorum; test: Action against Septoria nodorum/wheat (Septoria leaf spot on wheat); conditions: wheat plants cv. Arina, 0.02% active ingredient, spray, assessed 11 days after inoculation
# [6] = test system: Venturia inaequalis; test: Action against Venturia inaequalis/apple (scab on apple); conditions: apple seedlings cv. McIntosh, 0.02% active ingredient, spray
# [7] = test system: Botrytis cinerea; test: Action against Botrytis cinerea/apple (Botrytis on apple fruits); conditions: apple fruit cv. Golden Delicious, 30 μl droplets of 0.002% active ingredient in drilled holes, assessed after 7 days
# [8] = test system: Botrytis cinerea; test: Action against Botrytis cinerea/tomato (Botrytis on tomatoes); conditions: tomato plants cv. Roter Gnom, 0.002% active ingredient, spray, assessed after 4 days incubation
SMILES,infestation [1],infestation [2],infestation [3],infestation [4],infestation [5],infestation [6],infestation [7],infestation [8]
Cn1cc(C(=O)Nc2ccccc2-c2ccc(-c3ccccc3)cc2)c(C(F)(F)F)c1 [Compound 1.35],< 20%,< 20%,< 10%,< 20%,< 20%,< 20%,< 10%,< 10%
Cc1c(C(F)(F)F)c(C(=O)Nc2ccccc2-c2ccc(-c3ccccc3)cc2)cn1C [Compound 2.35],< 20%,< 20%,< 10%,< 20%,< 20%,< 20%,< 10%,< 10%
